The experiment addresses Myc-Tcf7l1. The experiment in a line: co-IP.

Results are given in words; binding and its absence hold for the method and conditions named. Binding seen in cells or lysates may run through a third protein. Binding calls can cover weak binding; strength is not graded here. Where a sequence is shown, tags or fusion partners need not be part of it.

Results on one molecule are retold here after article doi:10.1101/2023.05.25.542248.

B1: mBarhl1-3xFlag-HA (mouse BarH-like 1 homeobox protein, full length) (protein, UniProt P63157 1-327)
chain: MEGSNGFGIDSILSHRAGSPALPKGDPLLGDCRSPLELSPRSESSSDCSSPASPGRDCLETSTSRPGAASGPGLDSHLQPGQLSAPAQSRTVTSSFLIRDILADCKPLAACAPYSSSGQPAAPEPGGRLAAKAGEDFRDKLDKSVSSASSDSEYKVKEEGDREISSSRDSPPVRLKKPRKARTAFTDHQLAQLERSFERQKYLSVQDRMELAASLNLTDTQVKTWYQNRRTKWKRQTAVGLELLAEAGNYSALQRMFPSPYFYPQSLVSNLDPGAALYLYRGPSAPPPALQRPLVPRILIHGLQGASEPPPPLPPLPGVLPRAAQPR
As for B1, the binding entry is “binds”.
